Measurements reported in patent US20250121104A1 (FUSION PHARMACEUTICALS, published 2025).
No constants are given. Whether binding was seen depends on the method and setting. Some results given as binding are weak or reduced against the parent protein; the word gives no strength.

Amino acid sequences for entries named in this document (tags omitted). A change or cut given only in a name is not applied to a line headed by its entry.
UniProt P08581: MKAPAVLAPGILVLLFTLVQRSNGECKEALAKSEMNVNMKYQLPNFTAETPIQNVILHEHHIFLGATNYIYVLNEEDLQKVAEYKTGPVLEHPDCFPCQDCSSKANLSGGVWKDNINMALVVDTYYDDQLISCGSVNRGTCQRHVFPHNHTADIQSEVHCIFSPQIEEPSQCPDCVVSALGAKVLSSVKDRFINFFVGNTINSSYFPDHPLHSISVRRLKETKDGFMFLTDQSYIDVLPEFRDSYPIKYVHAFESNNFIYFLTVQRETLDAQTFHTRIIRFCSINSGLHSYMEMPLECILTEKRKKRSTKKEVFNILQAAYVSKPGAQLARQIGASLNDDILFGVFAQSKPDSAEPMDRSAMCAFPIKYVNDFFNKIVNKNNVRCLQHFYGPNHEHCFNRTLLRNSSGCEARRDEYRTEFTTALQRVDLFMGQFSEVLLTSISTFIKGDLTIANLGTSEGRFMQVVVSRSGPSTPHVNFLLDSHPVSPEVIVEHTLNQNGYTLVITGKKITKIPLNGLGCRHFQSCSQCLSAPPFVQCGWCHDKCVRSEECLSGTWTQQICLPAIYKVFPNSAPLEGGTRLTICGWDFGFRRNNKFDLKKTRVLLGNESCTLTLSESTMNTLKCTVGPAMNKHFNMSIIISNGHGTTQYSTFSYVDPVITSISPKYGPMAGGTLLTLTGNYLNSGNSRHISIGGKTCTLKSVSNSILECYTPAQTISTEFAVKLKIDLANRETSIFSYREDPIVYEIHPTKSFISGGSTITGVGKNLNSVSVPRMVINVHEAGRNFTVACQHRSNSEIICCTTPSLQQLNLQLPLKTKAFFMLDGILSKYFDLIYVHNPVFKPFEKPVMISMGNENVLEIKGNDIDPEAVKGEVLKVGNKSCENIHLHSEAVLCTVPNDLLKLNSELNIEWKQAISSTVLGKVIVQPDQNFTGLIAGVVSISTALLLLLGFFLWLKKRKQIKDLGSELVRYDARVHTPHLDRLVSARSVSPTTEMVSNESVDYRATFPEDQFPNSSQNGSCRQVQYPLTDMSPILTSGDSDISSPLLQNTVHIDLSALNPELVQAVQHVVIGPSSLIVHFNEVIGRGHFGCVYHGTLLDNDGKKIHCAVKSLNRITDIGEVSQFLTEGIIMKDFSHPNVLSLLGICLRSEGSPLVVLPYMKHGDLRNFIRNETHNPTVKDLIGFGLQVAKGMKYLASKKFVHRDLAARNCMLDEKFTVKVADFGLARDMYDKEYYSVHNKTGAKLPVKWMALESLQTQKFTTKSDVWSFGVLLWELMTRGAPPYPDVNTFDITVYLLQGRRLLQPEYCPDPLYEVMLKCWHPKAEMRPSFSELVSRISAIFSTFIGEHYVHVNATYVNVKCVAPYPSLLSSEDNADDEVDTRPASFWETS

Tests used:
[1] = molecular target: human cMET (recombinant, soluble monomeric) (human) (UniProt P08581); test: BLI (Octet384), His-tagged human cMET on Ni-NTA sensors, then 66 nM antibody, then 500 nM human EGFR
[2] = molecular target: human EGFR (recombinant, soluble monomeric) (human) (UniProt P00533); test: as above
[3] = molecular target: human cMET (recombinant, soluble monomeric) (human) (UniProt P08581); test: ELISA, antigen coated at 1 µg/mL, antibody titrated from 10 µg/mL, anti-human Fab-HRP
[4] = molecular target: cynomolgus monkey cMET (recombinant, soluble monomeric) (cynomolgus monkey); test: as above
[5] = molecular target: human EGFR (recombinant, soluble monomeric) (human) (UniProt P00533); test: as above
[6] = molecular target: cynomolgus monkey EGFR (recombinant, soluble monomeric) (cynomolgus monkey); test: as above
mouse EGFR (recombinant) [7] = molecular target: T1, mouse EGFR (recombinant) (mouse, UniProt Q01279 25-647); test: as above
T1 construct: also called murine EGFR

[8] = molecular target: EGFR and cMET co-expressed on the surface of tumour cell lines (HCC827, HT29, H441, H1975) (UniProt P00533); test: live cell confocal fluorescence microscopy, AlexaFluor647-labelled antibody pre-bound to H1975 cells
[9] = molecular target: human cMET (recombinant, soluble monomeric) (human) (UniProt P08581); test: ELISA (legend of FIG. 3A)
[10] = molecular target: cynomolgus monkey cMET (recombinant, soluble monomeric) (cynomolgus monkey); test: ELISA (legend of FIG. 3A)
[11] = molecular target: human EGFR (recombinant, soluble monomeric) (human) (UniProt P00533); test: ELISA (legend of FIG. 3A)
[12] = molecular target: cynomolgus monkey EGFR (recombinant, soluble monomeric) (cynomolgus monkey); test: ELISA (legend of FIG. 3A)
mouse EGFR (recombinant) [13] = molecular target: T1, mouse EGFR (recombinant); test: ELISA (legend of FIG. 3A)

Measured: binding

B1: QD6/B09-57 DuetMab (bispecific antibody, V domains shown)
VH 1: QVQLVQSGAEVKKPGSSVKVSCKASGGTFSDNDFSWVRQAPGQGLEWMGAIVAVVRTETYAQKFQDRVKITADISTRTTYMELSSLRSEDTAVYYCARRLMSAISGPGAPLLMWGQGTLVTVSS
VL 1: QSALTQPRSVSGSPGQSVTISCTGTSSDVGGYNYVSWYQQHPGKAPKLMIYDVSERPSGVPDRFSGSKSGNTASLTISGLQAEDEADYYCFSYTSSDTLEIFGGGTKLTVL
VH 2: QVQLVQSGAEVKKPGASVKVSCKASGYTFTDYYIHWVRQATGQGLEWMGWMNPNSGNTGYAQKFQGRVTMTRDTSISTAYMELSSLRSEDTAVYYCARGQGYTHSWGQGTMVTVSS
VL 2: DIQMTQSPSTLSASVGDRVTITCRASEGIYHWLAWYQQKPGKAPKLLIYKASSLASGVPSRFSGSGSGTEFTLTISSLQPDDFATYYCQQYSNYPPTFGGGTKLEIK
notes: also called QD6/B09 DuetMab; QD6/B09-AlexaFluor647
binds: [1] | [2] | [3] | [4] | [5] | [6] | mouse EGFR (recombinant) [7] | [8] | [9] | [10] | [11] | [12] | mouse EGFR (recombinant) [13]

B2: B09-57 IgG (antibody, V domains shown)
VH: B1 VH 2
VL: B1 VL 2
notes: also called B09-GL; anti-cMET antibody
binds: [1] | [3] | [4] | [9] | [10]
